Results published in the supplement of paper PMC7877785.
± gives the uncertainty stated by the source. Many of these values have a large error.

Test: self-splicing fitness, log relative to wild type (ln ratio); higher = more splicing; Tetrahymena group I intron in knt gene, E. coli kanamycin selection, DiMSum; sequences stand for … in CUCUCU…GGAGGGAAAAGUUAUCAGGCAUGCACCUGGUAGCUAGUCUUUAAACCAAUAGAUUGCAUCGGUUUAAAAGGCAAGACCGUCAAAUUGCGGGAAAGGGGUCAACAGCCGUUCAGUACCAAGUCUCAGGGGAAACUUUGAGAUGGCCUUGCAAAGGGUAUGGUAAUAAGCUGACGGACAUGGUCCUAACCACGCAGCCAAGUCCUAAGUCAACAGAUCUUCUGUUGAUAUGGAUGCAGUUCACAGACUAAAUGUCGGUCGGGGAAGAUGUAUUCUUCUCAUAAGAUAUAGUCGGACCUCUCCUUAAUGGGAGCUAGCGGAUGAAGUGAUGCAACACUGGAGCCGCUGGGAACUAAUUUGUAUGCGAAAGUAUAUUGAUUAGUUUUGGAGUACUCGUGGUCG
Method in brief: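 Fitness was computed with DiMSum as the error-weighted combination of replicate fold changes, kanamycin versus none, each normalised to wild type. The library randomised all eight intron nucleotides of the P1ex region, with the intron placed in the knt kanamycin-resistance gene on pET-22b(+) in E. coli BL21(DE3). Six replicate transformations were grown overnight at 37°C or 30°C on LB agar with or without 25 μg/mL kanamycin, plus 100 μg/mL carbenicillin, 50 μM IPTG and 0.2% rhamnose. Pooled colonies were amplicon-sequenced on an Illumina HiSeq 2500.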

| Sequence | self-splicing fitness (ln) (37 °C) | self-splicing fitness (ln) (30 °C) |
| --- | --- | --- |
| ACUGAGCAAUAUUACGAGCC | -2.32 ± 0.64 |  |
| CAUGAGCAAUAUUACGGCCC | -1.37 ± 1.2 |  |
| UGGGAGCAAUAUUACGCAUC | -2.58 ± 0.38 | -3 ± 0.32 |
| ACCGAGCAAUAUUACGUAUC |  | -4.53 ± 0.51 |
| GGUUAGCAAUAUUACGAAAG | -1.25 ± 0.53 | -2.34 ± 0.78 |
| GUCAAGCAAUAUUACGCUAC |  | -4.48 ± 0.72 |
| UGCUAGCAAUAUUACGUAUC |  | -3.17 ± 0.74 |
| AUGUAGCAAUAUUACGCCAC | -1.7 ± 0.8 |  |
| UGAGAGCAAUAUUACGAUGU | -3.17 ± 0.73 |  |
| CCGUAGCAAUAUUACGGCAC | -2.14 ± 0.26 | -3.83 ± 0.42 |
| AUGGAGCAAUAUUACGCACG | -1.26 ± 0.34 | -2.3 ± 0.3 |
| GAGGAGCAAUAUUACGCAUA | 1.5 ± 1.1 |  |
| GUCUAGCAAUAUUACGCGCC | -2.02 ± 0.78 | -2.65 ± 1.1 |
| GAUGAGCAAUAUUACGAGAA | -1.47 ± 0.74 | -2.65 ± 1.1 |
| CUCGAGCAAUAUUACGGGAG |  | -3.51 ± 0.77 |
| GCAAAGCAAUAUUACGCUUC | -2.39 ± 0.33 | -4.15 ± 0.33 |
| UCAGAGCAAUAUUACGCCAC | -1.47 ± 1.2 | -3.37 ± 0.53 |
| CCGGAGCAAUAUUACGCUCU | -1.88 ± 1.2 |  |
| CAUGAGCAAUAUUACGUCAG | -1.13 ± 0.12 | -1.35 ± 0.095 |
| CAAGAGCAAUAUUACGCCAC | -2.08 ± 1.1 |  |
| UCCUAGCAAUAUUACGACAA |  | -3.57 ± 1 |
| UUGGAGCAAUAUUACGGUCG | -2.09 ± 0.65 |  |

| Sequence | self-splicing fitness (ln) (37 °C) | self-splicing fitness (ln) (30 °C) |
| --- | --- | --- |
| UCCAAGCAAUAUUACGCGUC | -2.63 ± 0.11 | -3.21 ± 0.1 |
| GCGCAGCAAUAUUACGAACC | 0.0779 ± 0.55 | -0.868 ± 0.71 |
| UUUGAGCAAUAUUACGAGUU |  | -2.86 ± 0.51 |
| CUUAAGCAAUAUUACGAGUU |  | -4.5 ± 0.52 |
| CGGGAGCAAUAUUACGCUUC |  | -3.18 ± 0.74 |
| GGUGAGCAAUAUUACGCGAG |  | -4.28 ± 0.6 |
| GACGAGCAAUAUUACGACAG |  | -3.85 ± 0.53 |
| GGACAGCAAUAUUACGCUCU | -2.22 ± 0.58 |  |
| GCGGAGCAAUAUUACGAAUA |  | -3.58 ± 1 |
| GCGGAGCAAUAUUACGUCAA | -2.79 ± 0.77 |  |
| GAGGAGCAAUAUUACGCAAU | -3.32 ± 1 |  |
| CCAGAGCAAUAUUACGCUGA | -2.39 ± 1.1 | -2.55 ± 0.56 |
| CGUAAGCAAUAUUACGUAGG | -0.149 ± 0.11 | -1.09 ± 0.082 |
| AAGGAGCAAUAUUACGUACG | -2.52 ± 0.62 | -3.57 ± 0.6 |
| UGCGAGCAAUAUUACGCGGG | -2.26 ± 0.56 |  |
| UGCGAGCAAUAUUACGCCGC | -1.3 ± 0.43 | -3.34 ± 0.36 |
| UGCGAGCAAUAUUACGGACC | -3.08 ± 0.74 |  |
| AAUGAGCAAUAUUACGCGCU |  | -4.2 ± 0.72 |
| UUGUAGCAAUAUUACGGCAU | 0.641 ± 0.11 | -0.835 ± 0.096 |
| AGACAGCAAUAUUACGAAUC |  | -4.38 ± 0.72 |
| AGAGAGCAAUAUUACGAAAA |  | -2.21 ± 1.1 |

Part of the list above, as tab-separated lines:
Sequence	self-splicing fitness (ln) (37 °C)	self-splicing fitness (ln) (30 °C)
UUUGAGCAAUAUUACGAGUU		-2.86 ± 0.51
CUUAAGCAAUAUUACGAGUU		-4.5 ± 0.52
